Assay results reported in PMC5963096.
Results are given in words; binding and its absence hold for the method and conditions named. In cells and extracts the contact can be indirect. Some entries that bind do so weakly or less than the wild type.

Sequences of proteins named here, by UniProt entry; tags and fusion partners are left off.
UniProt Q14680: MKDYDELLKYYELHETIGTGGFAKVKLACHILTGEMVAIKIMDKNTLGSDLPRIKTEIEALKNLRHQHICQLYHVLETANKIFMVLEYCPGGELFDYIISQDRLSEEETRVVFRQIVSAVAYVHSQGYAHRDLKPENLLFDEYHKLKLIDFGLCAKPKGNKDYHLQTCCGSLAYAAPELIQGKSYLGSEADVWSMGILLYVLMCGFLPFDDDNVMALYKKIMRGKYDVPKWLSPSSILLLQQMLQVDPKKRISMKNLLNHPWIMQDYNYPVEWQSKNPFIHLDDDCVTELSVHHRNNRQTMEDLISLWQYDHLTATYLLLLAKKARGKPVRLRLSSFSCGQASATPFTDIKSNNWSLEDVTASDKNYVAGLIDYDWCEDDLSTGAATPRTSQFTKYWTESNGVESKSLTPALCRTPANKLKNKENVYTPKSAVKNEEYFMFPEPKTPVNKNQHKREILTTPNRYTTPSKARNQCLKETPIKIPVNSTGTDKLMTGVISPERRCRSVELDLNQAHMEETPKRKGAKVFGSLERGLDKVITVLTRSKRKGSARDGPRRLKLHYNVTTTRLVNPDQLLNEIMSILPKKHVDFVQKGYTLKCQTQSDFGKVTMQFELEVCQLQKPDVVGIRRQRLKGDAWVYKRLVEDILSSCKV

Experiments:
[1] = target: T1, Serine-threonine kinase receptor-associated protein (STRAP) (human (endogenous in SW480, HCT116, HCT116 Bax-/-)) (UniProt Q9Y3F4); test: co-IP; cell extracts of SW480, HCT116 WT and HCT116 Bax-/- cells, with or without sanguinarine treatment; anti-STRAP or anti-MELK antibody at 4 °C overnight, agarose beads, washed five times with lysis buffer; western blotting
T1 sequence: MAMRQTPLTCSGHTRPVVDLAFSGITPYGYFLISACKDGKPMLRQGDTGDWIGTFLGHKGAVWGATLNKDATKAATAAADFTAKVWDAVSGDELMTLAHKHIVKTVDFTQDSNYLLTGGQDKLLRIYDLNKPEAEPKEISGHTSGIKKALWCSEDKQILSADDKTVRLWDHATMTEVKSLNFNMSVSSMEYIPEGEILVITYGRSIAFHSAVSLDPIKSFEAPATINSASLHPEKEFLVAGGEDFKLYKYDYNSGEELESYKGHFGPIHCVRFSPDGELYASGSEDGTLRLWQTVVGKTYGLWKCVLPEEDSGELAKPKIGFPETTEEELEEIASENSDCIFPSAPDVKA

[2] = target: T1, Serine-threonine kinase receptor-associated protein (STRAP) (human (endogenous in SW480, HCT116, HCT116 Bax-/-)); test: co-IP; whole lysates of orthotopic CRC tumor tissue from nude mice (control, sanguinarine 4 or 8 mg/kg/d, cisplatin 1 mg/kg/d); primary antibodies of MELK and STRAP added respectively; western blotting

binding [1]: binds | binding [2]: binds
Substance: Maternal embryonic leucine zipper kinase (MELK) (from UniProt Q14680 1-651) (enzyme)
